From patent publication EP0620008B1, “Use of vip, analogues and fragments thereof for the treatment of neurodegenerative diseases” (YEDA RESEARCH AND DEVELOPMENT COMPANY, LTD., priority 1993, dated 1999)
Read-outs that look alike come from different tables or passages of the source. Part of at least one peptide drawing is inferred or uncertain, most often the ends. Where a SMILES comes first, the peptide text is derived from it. The star is where a group is joined. Stearoyl = CCCCCCCCCCCCCCCCCC(=O)*

Key:
[1] = test system: electrically blocked neurons; assay type: cell-based, Mouse
untreated neurons = assay: survival of untreated cerebral cortical neurons (protection from naturally occurring death); conditions: cerebral cortical cultures of newborn rats; number of cells at 10^-12 M serves as control; Figs. 2-4

CCCC[C@H](NC(=O)[C@H](CCC(N)=O)NC(=O)[C@H](CCCCN)NC(=O)[C@H](CCCNC(=N)N)NC(=O)[C@H](CC(C)C)NC(=O)[C@H](CCCNC(=N)N)NC(=O)[C@@H](NC(=O)[C@H](Cc1ccc(O)cc1)NC(=O)[C@H](CC(N)=O)NC(=O)[C@H](CC(=O)O)NC(=O)[C@@H](NC(=O)[C@H](Cc1ccccc1)NC(=O)[C@@H](NC(=O)[C@H](C)NC(=O)[C@H](CC(=O)O)NC(=O)[C@H](CO)NC(=O)[C@@H](N)Cc1c[nH]cn1)C(C)C)[C@@H](C)O)[C@@H](C)O)C(=O)N[C@@H](C)C(=O)N[C@H](C(=O)N[C@@H](CCCCN)C(=O)N[C@@H](CCCCN)C(=O)N[C@@H](Cc1ccc(O)cc1)C(=O)N[C@@H](CC(C)C)C(=O)N[C@@H](CC(N)=O)C(=O)N[C@@H](CO)C(=O)N[C@H](C(=O)N[C@@H](CC(C)C)C(=O)N[C@@H](CC(N)=O)C(N)=O)[C@@H](C)CC)C(C)C [Nle^17-VIP, Norleucine^17-VIP]
potency in protecting electrically blocked cells from death, relative to native VIP [1]: about 10 fold

CCCCCCCCCCCCCCCCCC(=O)N[C@@H](Cc1c[nH]cn1)C(=O)N[C@@H](CO)C(=O)N[C@@H](CC(=O)O)C(=O)N[C@@H](C)C(=O)N[C@H](C(=O)N[C@@H](Cc1ccccc1)C(=O)N[C@H](C(=O)N[C@@H](CC(=O)O)C(=O)N[C@@H](CC(N)=O)C(=O)N[C@@H](Cc1ccc(O)cc1)C(=O)N[C@H](C(=O)N[C@@H](CCCNC(=N)N)C(=O)N[C@@H](CC(C)C)C(=O)N[C@@H](CCCNC(=N)N)C(=O)N[C@@H](CCCCN)C(=O)N[C@@H](CCC(N)=O)C(=O)N[C@@H](CCCC)C(=O)N[C@@H](C)C(=O)N[C@H](C(=O)N[C@@H](CCCCN)C(=O)N[C@@H](CCCCN)C(=O)N[C@@H](Cc1ccc(O)cc1)C(=O)N[C@@H](CC(C)C)C(=O)N[C@@H](CC(N)=O)C(=O)N[C@@H](CO)C(=O)N[C@H](C(=O)N[C@@H](CC(C)C)C(=O)N[C@@H](CC(N)=O)C(N)=O)[C@@H](C)CC)C(C)C)[C@@H](C)O)[C@@H](C)O)C(C)C [St-Nle^17-VIP, Stearoyl norleucine^17-VIP]
peak of active concentrations ([1]; 1 µM tetrodotoxin, Fig. 1): broadening of the peak of active concentrations | potency in protecting electrically blocked cells from death, relative to native VIP ([1]; 1 µM tetrodotoxin, treatment day 9 to day 14, Fig. 1): about 100 fold

CCCCCCCCCCCCCCCCCC(=O)N[C@@H](Cc1c[nH]cn1)C(=O)N[C@@H](CO)C(=O)N[C@@H](CC(=O)O)C(=O)N[C@@H](C)C(=O)N[C@H](C(=O)N[C@@H](Cc1ccccc1)C(=O)N[C@H](C(=O)N[C@@H](CC(=O)O)C(=O)N[C@@H](CC(N)=O)C(=O)N[C@@H](Cc1ccc(O)cc1)C(=O)N[C@H](C(=O)N[C@@H](CCCNC(=N)N)C(=O)N[C@@H](CC(C)C)C(=O)N[C@@H](CCCNC(=N)N)C(=O)N[C@@H](CCCCN)C(=O)N[C@@H](CCC(N)=O)C(=O)N[C@@H](CCSC)C(=O)N[C@@H](C)C(=O)N[C@H](C(=O)N[C@@H](CCCCN)C(=O)N[C@@H](CCCCN)C(=O)N[C@@H](Cc1ccc(O)cc1)C(=O)N[C@@H](CC(C)C)C(=O)N[C@@H](CC(N)=O)C(=O)N[C@@H](CO)C(=O)N[C@H](C(=O)N[C@@H](CC(C)C)C(=O)N[C@@H](CC(N)=O)C(N)=O)[C@@H](C)CC)C(C)C)[C@@H](C)O)[C@@H](C)O)C(C)C [St-VIP, Stearoyl VIP]
peak of active concentrations [1]: broadening of the peak of active concentrations | potency in protecting electrically blocked cells from death, relative to native VIP [1]: about 10 fold

CCCCCCCCCCCCCCCCCC(=O)N[C@@H](C)C(=O)N[C@H](C(=O)N[C@@H](CCCCN)C(=O)N[C@@H](CCCCN)C(=O)N[C@@H](Cc1ccc(O)cc1)C(=O)N[C@@H](CC(C)C)C(=O)N[C@@H](CC(N)=O)C(=O)N[C@@H](CO)C(=O)N[C@H](C(=O)N[C@@H](CC(C)C)C(=O)N[C@@H](CC(N)=O)C(N)=O)[C@@H](C)CC)C(C)C [peptide 6, St-A-V-K-K-Y-L-N-S-I-L-N] (Stearoyl-AVKKYLNSILN-NH2)
concentrations able to protect cells from naturally occurring death (untreated neurons): ≥ 10^-11 M
